From patent US12161653B2, “Treatment of submental fat” (Allergan Sales, LLC, priority 2011, dated 2024)

Tested on: submental fat (SMF)
Experiment: Example 3 phase II placebo-controlled study (CR-SMFRS, PR-SMFRS, PR-SMFIS, MRI, other scales)
Type: in vivo, human
Procedure: A clinical study was conducted to evaluate the effectiveness of various doses of sodium deoxycholate in removing undesired submental fat (SMF) deposits. This clinical study was multicenter, randomized, double-blind, placebo-controlled study of sodium deoxycholate injection (“SDI” or alternatively “ATX-101”) versus placebo for the reduction of localized subcutaneous fat in the submental area (SMF) using magnetic resonance imaging (MRI) and a battery of clinician- and subject-reported measurements.
Study Design: FIG. 2 depicts the study Design and Treatment Schema associated with this procedure. […]
To measure changes in SMF volume and thickness, MRI acquisitions were repeated prior to each treatment session and post-treatment (4 and 12 weeks after the last treatment cycle). Before subjects completed each MRI visit, the MRI images were evaluated for acceptability. […]
Evaluation of Efficacy: The effects of 5 mg/mL SDI and 10 mg/mL SDI transcutaneous injections in the submental area were evaluated relative to placebo by measuring the following: (1) the reduction of fat using Clinician-Reported Submental Fat Rating Scale (CR-SMFRS), Patient-Reported Submental Fat Rating Scale (PR-SMFRS), and Patient-Reported Submental Fat Impact Scale (PR-SMFIS); (2) the volume of SMF using MRI; and (3) the thickness of SMF using MM. […]

With `C[C@H](CCC(=O)[O-])[C@H]1CC[C@H]2[C@@H]3CC[C@@H]4C[C@H](O)CC[C@]4(C)[C@H]3C[C@H](O)[C@]12C.[Na+]` [sodium deoxycholate] the body weight (during the course of the treatments (FIG. 19)) was “did not undergo obvious changes” and the “body mass index (BMI)” value (patients receiving the treatments (FIG. 17)) was “did not have marked changes”.
